Experimental data: publication PMC3431373

By UniProt entry, the sequences of proteins in these tests, tags left out. Where a name states a change or a piece, a line headed by the entry shows the natural chain unless it says otherwise.
UniProt P41235: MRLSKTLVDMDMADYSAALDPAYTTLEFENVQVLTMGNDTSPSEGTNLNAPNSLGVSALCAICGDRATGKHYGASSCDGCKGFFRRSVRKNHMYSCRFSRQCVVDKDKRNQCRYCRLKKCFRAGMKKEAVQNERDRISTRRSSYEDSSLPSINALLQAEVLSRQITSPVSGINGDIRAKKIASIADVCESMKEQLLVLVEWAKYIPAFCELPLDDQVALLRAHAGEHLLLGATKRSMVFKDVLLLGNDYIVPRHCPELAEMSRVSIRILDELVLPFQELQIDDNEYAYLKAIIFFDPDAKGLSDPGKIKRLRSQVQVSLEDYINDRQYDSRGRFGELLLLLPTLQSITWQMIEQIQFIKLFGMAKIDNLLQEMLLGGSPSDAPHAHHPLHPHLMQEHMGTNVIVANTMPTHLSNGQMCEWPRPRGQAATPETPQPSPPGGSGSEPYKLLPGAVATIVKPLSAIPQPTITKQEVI

Target: HNF4α-ligand binding domain (LBD) (142–368), Gal4BD bait (human) (UniProt P41235)
Experiment: two-hybrid; Gal4BD-HNF4α-LBD (142–368) as bait, mouse pancreatic library (Clontech) as prey, S. cerevisiae AH109; growth on Trp−/Leu−/His−/3 mM 3-AT plates and lacZ assays; positive hits retested one to one

binding: binds
B1: MED25 407–744 region (mouse, AAH21333), two-hybrid prey clone (domain or fragment, UniProt Q8VCB2 407-744)
chain: EWQEKPKPASVDANTKLTRSLPCQVYVNHGENLKTEQWPQKLIMQLIPQQLLTTLGPLFRNSRMVQFHFTNKDLESLKGLYRIMGNGFAGCVHFPHTAPCEVRVLMLLYSSKKKIFMGLIPYDQSGFVNGIRQVITNHKQVQQQKLEQQRGMGAQQAPPVLGPILEEQARPPQNLLQLRAPQPQPQGAVGASAATGQPQPQGATQAPTGAPQGPPGAAPGPPPSGPILRPQNPGANPQLRSLLLNPAPPQTGVPPPQASLHHLQPPGAPTLLPPHQSMGQPQLGPQLLHPPPAQSWPTQLPQRAPLPGQMLLSGGPRGPVPQPGLQPSVMEDDILMDL

No constants are given. Whether binding was seen depends on the method and setting. A result given as binding can be weak or reduced; the word gives no strength.
